Test results taken from PubChem BioAssay AID1487 (National Center for Advancing Translational Sciences (NCATS), 2009).
“And” between values parts separate entries of the source, which are not always exact repeats. Equal entries are not always repeated. The list shows a part of the results. The main result of the screen is listed elsewhere. These columns were measured beside it and carry no call. The list favours compounds with an active or inconclusive main result. Potencies come from curve fits of mixed quality, noted in brackets.

Experiment: qHTS Assay for Modulators of Lamin A Splicing
Conditions: HeLa LMNA splicing GFP/RFP minigene ratio, 48 h
In short: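 S3 HeLa cells stably expressing lamin A-EGFP splicing minigene plus DsRed2, 600 cells/well, 48 h compound exposure at 37C. Laser-scanning cytometry; analysed as GFP (500-530 nm)/RFP (575-640 nm) total intensity ratio; 0.5% DMSO vehicle.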

[1] = measured here: RFP viability control channel
[2] = measured here: GFP splicing reporter channel

| Structure (SMILES) | AC50 [1] | AC50 [2] |
| --- | --- | --- |
| Cc1nc2ccccc2c(=O)n1NC(=O)c1c(O)c2c(n(CC(C)C)c1=O)CCCC2 | 14.1 µM [rising, single point] | – |
| O=C(CSc1nc2ncc(Cl)cc2[nH]1)c1c[nH]c2ccccc12 | 25.1 µM [falling, single point] | 20 µM [falling, single point] |
| Cc1cc(C)cc(NC(=O)CCCSc2nc3ccccc3[nH]2)c1 | 11.2 µM [rising, partial curve] | 14.1 µM [rising, partial curve, poor fit] |
| Cc1c(NC(=O)c2ccc3c(c2)OCO3)cccc1-c1nc2ccccc2o1 | 20 µM [rising, partial curve] | 20 µM [rising, partial curve] |
| CCn1c(SCc2ccccc2)nnc1-c1nonc1NC(C)=O | 0.00316 µM [falling, full curve, poor fit] | – |
| O=C1c2ccccc2C(=O)N1CCc1nc2ccccc2c(=O)n1Cc1ccco1 | – | 31.6 µM [rising, single point] |
| Cc1ccc(SCC2(O)CCN(S(=O)(=O)c3ccc(Cl)cc3)CC2)cc1 | 28.2 µM [rising, single point] | – |
| CCOc1ccc(NC(=O)CSc2n[nH]c(N)n2)c([N+](=O)[O-])c1 | – | 11.2 µM [rising, partial curve] |
| O=c1nc(/C=C/c2cc([N+](=O)[O-])ccc2Cl)cc(C(F)(F)F)[nH]1 | – | 35.5 µM [falling, single point] |
| Cc1cc(NC(=O)CN2C(=O)C(C)(C)c3ccccc32)ccc1Br | – | 35.5 µM [falling, single point] |
| COc1cccc(OCCOCC(O)CN2CCN(Cc3ccc(Cl)cc3)CC2)c1 (centres undefined) | 22.4 µM [rising, partial curve] | 12.6 µM [rising, single point] |
| O=C(NC(=S)Nn1cnc2c(cnn2-c2ccccc2)c1=O)c1ccc(Cl)cc1 | 15.8 µM [rising, partial curve] | – |
| CC(=O)c1c(C)[nH]c(C(=O)OCC(=O)NCCc2ccc(Cl)cc2)c1C | 12.6 µM [rising, single point] | – |
| CCC(=O)NCC(c1ccco1)N1CCN(c2ccc(OC)cc2)CC1 (centres undefined) | 0.0708 µM [falling, full curve, poor fit] | – |
| CN(C)c1ccc(N=Nc2ccccc2C(=O)OCC(=O)NCC2CCCCC2)cc1 | 31.6 µM [rising, single point] | 35.5 µM [rising, single point] |
| Cc1cc(Cl)c(S(=O)(=O)N2CCN(c3ccccc3)CC2)cc1OCC(N)=O | 17.8 µM [rising, partial curve] | – |
| CCC(C)c1ccccc1NC(=O)Cc1coc2cc3c(cc12)CCC3 (centres undefined) | 35.5 µM [rising, single point] | – |

Exported bar-delimited: entries from further up.
Structure (SMILES) | AC50 [1] | AC50 [2]
CCn1c(SCc2ccccc2)nnc1-c1nonc1NC(C)=O | 0.00316 µM [falling, full curve, poor fit] | –
O=C1c2ccccc2C(=O)N1CCc1nc2ccccc2c(=O)n1Cc1ccco1 | – | 31.6 µM [rising, single point]

(next part)

| Structure (SMILES) | AC50 [1] | AC50 [2] |
| --- | --- | --- |
| CCN1/C(=C/c2ccc3cc(C)ccc3[n+]2CC)Sc2cc(C)c(C)cc21 | 3.98 µM [rising, full curve] | 0.631 µM [rising, single point] |
| CCCCN(C(=O)c1cccc2c(=O)c(C)c(-c3ccccc3)oc12)c1ccccc1 | 3.16 µM [falling, single point] | 3.16 µM [falling, single point] |
| Cc1ccc(NC(=O)CSc2ccccc2NC(=O)c2ccccc2Cl)cc1Cl | 17.8 µM [rising, single point] | – |
| Cc1c(/C=N\NC(=O)C2COc3ccc(C(C)(C)C)cc3O2)c2ccccc2n1C (centres undefined) | 5.01 µM [rising, single point] | – |
| COc1ccccc1CNC(=O)[C@@H]1CCCN1C(=O)C1CCN(S(=O)(=O)c2ccc(C)cc2)CC1 | 15.8 µM [rising, partial curve, poor fit] | 0.891 µM [rising, partial curve] |
| C/C=C/c1ccc(OCC(=O)Nc2ccc(C(N)=O)cc2)c(OC)c1 | 5.62 µM [rising, single point] | – |
| CC(=O)N1CCN(C(=S)c2ccc(N(C)C)cc2)CC1 | 5.62 µM [rising, single point] | – |
| CCN(CC)CCNC(=O)C(=O)NCC1OCCN1S(=O)(=O)c1ccc2c(c1)OCCO2 (centres undefined) | – | 1 µM [rising, partial curve] |
| Cc1ccc(C)c(NC(=O)CCC(=O)OC(C(=O)c2ccccc2)c2ccccc2)c1 (centres undefined) | 3.55 µM [rising, single point] | 5.01 µM [rising, single point] |
| COC(=O)c1sccc1NS(=O)(=O)c1ccc(OC)cc1 | 7.08 µM [rising, partial curve, poor fit] | – |
| O=C(CCCOc1ccc(Cl)cc1Cl)N1CCN(c2ccccn2)CC1 | 14.1 µM [rising, single point] | 11.2 µM [rising, single point] |
| N=C(N)SCCc1cnc[nH]1 | 5.62 µM [falling, single point] | 35.5 µM [rising, single point] |
| CC1(c2ccccc2)CC(C)(C)N(C(=O)C2CCCO2)c2ccccc21 (centres undefined) | 12.6 µM [rising, single point] | 22.4 µM [rising, single point] |
| COc1ccc(NC(C)=O)cc1NC(=O)CN1CCN(C2c3ccccc3-c3ccccc32)CC1 | 20 µM [falling, partial curve] | 17.8 µM [falling, single point] |
| CNC[C@H](O)c1cccc(O)c1 | 5.62 µM [rising, single point] and 1.58 µM [falling, partial curve, poor fit] | 1.12 µM [rising, full curve, poor fit] and 447 nM [falling, full curve, poor fit] |
| COc1ccc(NC(=O)c2ccc(-c3ccc(C)c4ccccc34)o2)cc1 | 12.6 µM [rising, partial curve] | 17.8 µM [rising, single point] |
| Cc1nn(CC(=O)Nc2ccc(Cl)c(S(=O)(=O)N(C)C)c2)c(C)c1[N+](=O)[O-] | 15.8 µM [rising, single point] | – |
